# Some of the results follow.
# Biological target: HSP90AA1 (UniProt P07900)
# Assay: dose-dependent thermal stabilisation call (2D-TPP, DLPTP, 10% FDR) (binary (1 = stabilised)); higher = stabilised by the compound
# Conditions: system: HL-60 intact cells; concentration range 0.04-10 µM
smiles,measurement,value
COc1ccc(Cn2ccc3ccc(C(=O)NO)cc32)cc1,dose-dependent thermal stabilisation call,inactive: 0

# Reference: the supplement of paper PMC7666118
